Results as given in the supplement of paper PMC8728848.
The list shows a part of the results.

Assays:
Assay in all cases: glycan array binding signal (z-score within array); higher = stronger binding
Details in all cases: glycan notation: IUPAC condensed, linker removed
[1] = target: Neu5Ac(a2-3)Gal6S(b1-4)[Fuc(a1-3)]GlcNAc
Method in brief: (§1)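 The binding signal is a Z-score computed within each array. Data were drawn from 3228 arrays in the Consortium for Functional Glycomics database, restricted to those with a known protein sequence. Scores were averaged over arrays of the same protein sequence at different concentrations or buffers, and over linkers, and negative values can be taken as non-binding.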

Neu5Ac(a2-3)GalNAc = target: Neu5Ac(a2-3)GalNAc
Method in brief: as §1

[2] = target: Neu5Ac(a2-3)GalNAc(b1-4)GlcNAc
Method in brief: as §1

[3] = target: Neu5Ac(a2-3)[GalNAc(b1-4)]Gal(b1-4)Glc
Method in brief: as §1

[4] = target: Neu5Ac(a2-3)[GalNAc(b1-4)]Gal(b1-4)GlcNAc
Method in brief: as §1

[5] = target: Neu5Ac(a2-3)[GalNAc(b1-4)]Gal(b1-4)GlcNAc(b1-3)GalNAc
Method in brief: as §1

[6] = target: Neu5Ac(a2-3)[Neu5Ac(a2-6)]GalNAc
Method in brief: as §1

Neu5Ac(a2-6)Gal = target: Neu5Ac(a2-6)Gal
Method in brief: as §1

[7] = target: Neu5Ac(a2-6)Gal(b1-3)GlcNAc(b1-3)[Gal(b1-4)GlcNAc(b1-6)]Gal(b1-4)Glc
Method in brief: as §1

Neu5Ac(a2-6)Gal(b1-4)Glc = target: Neu5Ac(a2-6)Gal(b1-4)Glc
Method in brief: as §1

[8] = target: Neu5Ac(a2-6)Gal(b1-4)GlcNAc
Method in brief: as §1

[9] = target: Neu5Ac(a2-6)Gal(b1-4)GlcNAc(b1-2)Man
Method in brief: as §1

[10] = target: Neu5Ac(a2-6)Gal(b1-4)GlcNAc(b1-2)Man(a1-3)Man(b1-4)GlcNAc(b1-4)GlcNAc
Method in brief: as §1

[11] = target: Neu5Ac(a2-6)Gal(b1-4)GlcNAc(b1-2)Man(a1-3)[Gal(b1-4)GlcNAc(b1-2)Man(a1-6)]Man(b1-4)GlcNAc(b1-4)GlcNAc
Method in brief: as §1

[12] = target: Neu5Ac(a2-6)Gal(b1-4)GlcNAc(b1-2)Man(a1-3)[GlcNAc(b1-2)Man(a1-6)]Man(b1-4)GlcNAc(b1-4)GlcNAc
Method in brief: as §1

[13] = target: Neu5Ac(a2-6)Gal(b1-4)GlcNAc(b1-2)Man(a1-3)[GlcNAc(b1-4)][Neu5Ac(a2-6)Gal(b1-4)GlcNAc(b1-2)Man(a1-6)]Man(b1-4)GlcNAc(b1-4)GlcNAc
Method in brief: as §1

[14] = target: Neu5Ac(a2-6)Gal(b1-4)GlcNAc(b1-2)Man(a1-3)[Man(a1-6)]Man(b1-4)GlcNAc(b1-4)GlcNAc
Method in brief: as §1

[15] = target: Neu5Ac(a2-6)Gal(b1-4)GlcNAc(b1-2)Man(a1-3)[Neu5Ac(a2-3)Gal(b1-4)GlcNAc(b1-2)Man(a1-6)]Man(b1-4)GlcNAc(b1-4)GlcNAc
Method in brief: as §1

[16] = target: Neu5Ac(a2-6)Gal(b1-4)GlcNAc(b1-2)Man(a1-3)[Neu5Ac(a2-6)Gal(b1-4)GlcNAc(b1-2)Man(a1-6)]Man(b1-4)GlcNAc(b1-4)GlcNAc
Method in brief: as §1

[17] = target: Neu5Ac(a2-6)Gal(b1-4)GlcNAc(b1-2)Man(a1-3)[Neu5Ac(a2-6)Gal(b1-4)GlcNAc(b1-2)Man(a1-6)]Man(b1-4)GlcNAc(b1-4)[Fuc(a1-6)]GlcNAc
Method in brief: as §1

[18] = target: Neu5Ac(a2-6)Gal(b1-4)GlcNAc(b1-2)Man(a1-6)Man(b1-4)GlcNAc(b1-4)GlcNAc
Method in brief: as §1

[19] = target: Neu5Ac(a2-6)Gal(b1-4)GlcNAc(b1-2)Man(a1-6)[Gal(b1-4)GlcNAc(b1-2)Man(a1-3)]Man(b1-4)GlcNAc(b1-4)GlcNAc
Method in brief: as §1

[20] = target: Neu5Ac(a2-6)Gal(b1-4)GlcNAc(b1-2)Man(a1-6)[GlcNAc(b1-2)Man(a1-3)]Man(b1-4)GlcNAc(b1-4)GlcNAc
Method in brief: as §1

[21] = target: Neu5Ac(a2-6)Gal(b1-4)GlcNAc(b1-2)Man(a1-6)[Man(a1-3)]Man(b1-4)GlcNAc(b1-4)GlcNAc
Method in brief: as §1

[22] = target: Neu5Ac(a2-6)Gal(b1-4)GlcNAc(b1-2)[Neu5Ac(a2-6)Gal(b1-4)GlcNAc(b1-4)]Man(a1-3)[GlcNAc(b1-4)][Neu5Ac(a2-6)Gal(b1-4)GlcNAc(b1-2)[Neu5Ac(a2-6)Gal(b1-4)GlcNAc(b1-6)]Man(a1-6)]Man(b1-4)GlcNAc(b1-4)GlcNAc
Method in brief: as §1

[23] = target: Neu5Ac(a2-6)Gal(b1-4)GlcNAc(b1-2)[Neu5Ac(a2-6)Gal(b1-4)GlcNAc(b1-4)]Man(a1-3)[GlcNAc(b1-4)][Neu5Ac(a2-6)Gal(b1-4)GlcNAc(b1-4)Man(a1-6)]Man(b1-4)GlcNAc(b1-4)GlcNAc
Method in brief: as §1

[24] = target: Neu5Ac(a2-6)Gal(b1-4)GlcNAc(b1-2)[Neu5Ac(a2-6)Gal(b1-4)GlcNAc(b1-6)]Man(a1-6)[Neu5Ac(a2-6)Gal(b1-4)GlcNAc(b1-2)Man(a1-3)][GlcNAc(b1-4)]Man(b1-4)GlcNAc(b1-4)GlcNAc
Method in brief: as §1

[25] = target: Neu5Ac(a2-6)Gal(b1-4)GlcNAc(b1-3)Gal(b1-3)GlcNAc
Method in brief: as §1

[26] = target: Neu5Ac(a2-6)Gal(b1-4)GlcNAc(b1-3)Gal(b1-4)GlcNAc
Method in brief: as §1

[27] = target: Neu5Ac(a2-6)Gal(b1-4)GlcNAc(b1-3)Gal(b1-4)GlcNAc(b1-2)Man(a1-3)[Neu5Ac(a2-6)Gal(b1-4)GlcNAc(b1-3)Gal(b1-4)GlcNAc(b1-2)Man(a1-6)]GalNAc
Method in brief: as §1

[28] = target: Neu5Ac(a2-6)Gal(b1-4)GlcNAc(b1-3)Gal(b1-4)GlcNAc(b1-3)Gal(b1-4)GlcNAc
Method in brief: as §1

[29] = target: Neu5Ac(a2-6)Gal(b1-4)GlcNAc(b1-3)Gal(b1-4)GlcNAc(b1-3)Gal(b1-4)GlcNAc(b1-2)Man(a1-3)[Neu5Ac(a2-6)Gal(b1-4)GlcNAc(b1-3)Gal(b1-4)GlcNAc(b1-3)Gal(b1-4)GlcNAc(b1-2)Man(a1-6)]GalNAc
Method in brief: as §1

[30] = target: Neu5Ac(a2-6)Gal(b1-4)GlcNAc(b1-3)Gal(b1-4)GlcNAc(b1-3)GalNAc
Method in brief: as §1

[31] = target: Neu5Ac(a2-6)Gal(b1-4)GlcNAc(b1-3)Gal(b1-4)GlcNAc(b1-3)[Neu5Ac(a2-6)Gal(b1-4)GlcNAc(b1-3)Gal(b1-4)GlcNAc(b1-6)]GalNAc
Method in brief: as §1

[32] = target: Neu5Ac(a2-6)Gal(b1-4)GlcNAc(b1-3)Gal(b1-4)GlcNAc(b1-6)[Gal(b1-3)]GalNAc
Method in brief: as §1

[33] = target: Neu5Ac(a2-6)Gal(b1-4)GlcNAc(b1-3)Gal(b1-4)[Fuc(a1-3)]GlcNAc(b1-3)Gal(b1-4)[Fuc(a1-3)]GlcNAc
Method in brief: as §1

[34] = target: Neu5Ac(a2-6)Gal(b1-4)GlcNAc(b1-3)GalNAc
Method in brief: as §1

B1: SabA (Helicobacter pylori) (protein)
chain: MGSSHHHHHHSSGLVPRGSHMENLYFQGEDNGFFVSAGYQIGEAVQMVKNTGELKNLNEKYEQLSQYLNQVASLKQSIQNANNIELVNSSLNYLKSFTNNNYNSTTQSPIFNAVQAVITSVLGFWSLYAGNYFTFFVGKKVGDSGQPASVQGNPPFKTIIENCSGIENCAMDQTTYDKMKKLAEDLQAAQTNSATKGNNLCALSGCAATDSTSNPPNSTVSNALNLAQQLMDLIANTKTAMMWKNIVISGVSNTSGAITSTNYPTQYAVFNNIKAMIPILQQAVTLSQSNHTLSASLQAQATGSQTNPKFAKDIYTFAQNQKQVISYAQDIFNLFNSIPAEQYKYLEKAYLKIPNAGSTPTNPYRQVVNLNQEVQTIKNNVSYYGNRVDAALSVARDVYNLKSNQAEIVTAYNDAKTLSEEISKLPHNQVNTKDIVTLPYDKNAPAAGQSNYQINPEQQSNLNQALAAMSNNPFKKVGMISSQNNNGA
glycan array binding signal (z-score) [1]: -0.913 | glycan array binding signal (z-score) (Neu5Ac(a2-3)GalNAc): 0.507 | glycan array binding signal (z-score) [2]: -0.739 | glycan array binding signal (z-score) [3]: -0.8 | glycan array binding signal (z-score) [4]: -0.949 | glycan array binding signal (z-score) [5]: 0.507 | glycan array binding signal (z-score) [6]: -0.38 | glycan array binding signal (z-score) (Neu5Ac(a2-6)Gal): 0.027 | glycan array binding signal (z-score) [7]: -0.762 | glycan array binding signal (z-score) (Neu5Ac(a2-6)Gal(b1-4)Glc): -0.048 | glycan array binding signal (z-score) [8]: -0.341 | glycan array binding signal (z-score) [9]: -0.826 | glycan array binding signal (z-score) [10]: -0.111 | glycan array binding signal (z-score) [11]: -0.079 | glycan array binding signal (z-score) [12]: -0.593 | glycan array binding signal (z-score) [13]: -0.273 | glycan array binding signal (z-score) [14]: -0.257 | glycan array binding signal (z-score) [15]: -0.588 | glycan array binding signal (z-score) [16]: 0.38 | glycan array binding signal (z-score) [17]: -0.576 | glycan array binding signal (z-score) [18]: -0.43 | glycan array binding signal (z-score) [19]: -0.045 | glycan array binding signal (z-score) [20]: -0.172 | glycan array binding signal (z-score) [21]: -0.358 | glycan array binding signal (z-score) [22]: -0.496 | glycan array binding signal (z-score) [23]: 0.247 | glycan array binding signal (z-score) [24]: -0.507 | glycan array binding signal (z-score) [25]: -0.482 | glycan array binding signal (z-score) [26]: -0.335 | glycan array binding signal (z-score) [27]: 0.572 | glycan array binding signal (z-score) [28]: 0.008 | glycan array binding signal (z-score) [29]: 0.784 | glycan array binding signal (z-score) [30]: 0.056 | glycan array binding signal (z-score) [31]: -0.366 | glycan array binding signal (z-score) [32]: -0.367 | glycan array binding signal (z-score) [33]: -0.74 | glycan array binding signal (z-score) [34]: 0.083
